PubChem BioAssay AID602313 (National Center for Advancing Translational Sciences (NCATS), 2012)
Screen size: about 390,000 compounds; about 760 (0.19%) were called active. Inconclusive means that the source gave no clear call. Such entries were picked first, then a sample of the others. Calls come from the whole dose curve; as a rule, active = well fitted inhibition curve with a large enough effect; inconclusive = small, poorly fitted or top-dose-only effect; inactive = flat fitted curve, though single readings scatter. A potency beside an inconclusive call is a rough fit, not a confirmed value.

Assay: qHTS for Inhibitors of Vif-A3F Interactions: qHTS; note: nearly all actives have a fitted effect of over 65% in size
Details: HeLa A3F-eYFP + Vif (tagged APOBEC3F with the HIV-1 protein that degrades it), YFP fluorescence increase; series mostly up to 46.1 µM
Procedure, shortened: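 HeLa cells stably expressing A3F-eYFP plus Vif, plated and incubated overnight at 37 deg C, then exposed to compounds overnight at 37 deg C. Blocked degradation read as raised yellow fluorescence (Ex 488/Em 500-530).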
Potency is the fitted concentration of half-maximal effect.

Question: Which Potency does the source give for `N#CCC(=O)Nc1ccc(C(=O)OCC(=O)c2ccc3c(c2)OCCO3)cc1` here?
Answer: inconclusive: 35.5 µM [inhibitor, single point]

Question: With `Cc1ccc(N2C(=O)NC(NC(=O)C(C)(C)C)(C(F)(F)F)C2=O)cc1` (centres undefined) as the molecule, how does the Potency read?
Answer: inconclusive: 3.55 µM [inhibitor, partial curve, poor fit]

Question: For `COc1cccc(NC(=S)N2CCCC2c2ccc(OC)c(OC)c2)c1` (centres undefined), which Potency is on record?
Answer: inactive

Question: With `C/C(CC(=O)Nc1ccccn1)=N\NC(=O)c1ccccc1O` as the molecule, how does the Potency read?
Answer: inactive

Question: With `CC1(C)C2CCC(C2)C1C/C=N/NC(N)=S` (centres undefined) as the molecule, how does the Potency read?
Answer: inconclusive: 11.2 µM [inhibitor, partial curve, poor fit]

Question: For `CCNc1ccc(Br)cc(C(=O)/C=C/c2ccccc2Cl)c1=O`, which Potency is on record?
Answer: inconclusive: 35.5 µM [inhibitor, single point]

Question: With `COc1ccccc1CC(=O)Nc1ccccc1C(=O)O` as the molecule, how does the Potency read?
Answer: inconclusive: 6.31 µM [inhibitor, single point]

Question: With `O=C(CCCSc1ccccc1)Nc1cccc(CO)c1` as the molecule, how does the Potency read?
Answer: inconclusive: 35.5 µM [inhibitor, single point]

Question: For `CC(Oc1ccc(F)cc1)C(=O)N1CCC(c2nc3ccccc3s2)CC1` (centres undefined), which Potency is on record?
Answer: inactive

Question: Which Potency does the source give for `CC(=O)COc1ccc2c(-c3ccccc3)cc(=O)oc2c1` here?
Answer: inconclusive: 5.62 µM [inhibitor, single point]

Question: For `N#C/C(=C\c1cn(Cc2ccc(F)cc2)c2ccccc12)C(=O)NCc1ccco1`, which Potency is on record?
Answer: inconclusive: 35.5 µM [inhibitor, single point]

Question: Which Potency does the source give for `Cc1ccc(N=C2NC(=O)/C(=C/c3cccs3)S2)cc1C` here?
Answer: inconclusive: 35.5 µM [inhibitor, single point]

Question: For `C(=N\n1cnnc1)/c1cccn1-c1ccccc1`, which Potency is on record?
Answer: inactive

Question: With `Cc1ccc(N=C2NC(=O)/C(=C/c3cccn3C)S2)c(C)c1` as the molecule, how does the Potency read?
Answer: inconclusive: 35.5 µM [inhibitor, single point]

Question: Which Potency does the source give for `O=C(O)CC1=C(O)C(=O)N(c2ccccc2)C1c1ccc(Br)cc1` (centres undefined) here?
Answer: inconclusive: 3.55 µM [inhibitor, single point]

Question: Which Potency does the source give for `CC1(C)CC(=O)C(C(C2=C(O)CC(C)(C)CC2=O)c2ccc(Cl)c([N+](=O)[O-])c2)C(=O)C1` (centres undefined) here?
Answer: inactive

Question: Which Potency does the source give for `COc1ccccc1N(CC(=O)NCC1CCCO1)C(=O)Cn1nnc(-c2cccs2)n1` (centres undefined) here?
Answer: inconclusive: 3.55 µM [inhibitor, single point]

Question: Which Potency does the source give for `Cc1noc(-c2ccc(N3CCCCC3)c([N+](=O)[O-])c2)n1` here?
Answer: inactive

Question: For `Cc1ccccc1CCNC(=O)c1ccc2c(c1)nc1n2CCC(C)C1` (centres undefined), which Potency is on record?
Answer: inactive

Question: Which Potency does the source give for `Cc1ccc(S(=O)(=O)c2ccc([N+](=O)[O-])o2)cc1` here?
Answer: inconclusive: 3.98 µM [inhibitor, single point]

Question: With `CC1CC(C)CN(CC(=O)c2c[nH]c3ccccc23)C1` (centres undefined) as the molecule, how does the Potency read?
Answer: active: 31.6 µM

Question: With `Cc1ccc(C(=O)NC2CCN(C(=O)Nc3ccccc3)CC2)cc1` as the molecule, how does the Potency read?
Answer: inconclusive: 35.5 µM [inhibitor, single point]

Question: Which Potency does the source give for `COc1ccc2cc(C#N)c(SCC(=O)N3CC(=O)Nc4ccccc43)nc2c1` here?
Answer: inconclusive: 35.5 µM [inhibitor, single point]

Question: With `Cc1nn(C)cc1/C=N\NC(=O)c1ccc(Cn2cc(Cl)cn2)cc1` as the molecule, how does the Potency read?
Answer: inconclusive: 0.794 µM [inhibitor, full curve, poor fit]

Question: Which Potency does the source give for `COc1ccc(C(NC(=O)C(C)C)c2ccc3cccnc3c2O)cc1` (centres undefined) here?
Answer: inactive

Question: For `COc1ccc(-c2cc(C(=O)N/N=C(\C)c3cccnc3)c3ccccc3n2)cc1`, which Potency is on record?
Answer: inactive

Question: For `Cc1ccc2nc(N(CCCN(C)C)C(=O)c3ccc(S(=O)(=O)N4CCc5ccccc5C4)cc3)sc2c1`, which Potency is on record?
Answer: inconclusive: 3.16 µM [inhibitor, single point]

Question: Which Potency does the source give for `O=c1[nH]c(CN2CCOCC2)nc2scc(-c3ccccc3)c12` here?
Answer: inconclusive: 2.24 µM [inhibitor, partial curve, poor fit]

Question: For `c1coc(-c2nc3ccccc3nc2-c2ccco2)c1`, which Potency is on record?
Answer: inactive

Question: Which Potency does the source give for `O=C(NCCc1ccccc1)c1coc(=O)c(Br)c1` here?
Answer: inconclusive: 20 µM [inhibitor, partial curve, poor fit]

Question: For `COC(=O)CCN(C1CCCCC1)S(=O)(=O)c1ccc(S(=O)(=O)N2CCCCC2)cc1`, which Potency is on record?
Answer: inactive

Question: For `COc1ccc(CN(CCCN2CCOCC2)C(=O)Nc2cccc(Cl)c2)cc1OC`, which Potency is on record?
Answer: inconclusive: 7.94 µM [inhibitor, partial curve, poor fit]

Question: With `Cc1ccc(S(=O)(=O)N(C)C)cc1NC(=S)N(C)C1CCN(C)CC1` as the molecule, how does the Potency read?
Answer: inconclusive: 35.5 µM [inhibitor, single point]

Question: For `Nc1c(C(=O)N2CCOCC2)sc2nc(N3CCOCC3)c3c(c12)CCCC3`, which Potency is on record?
Answer: inactive

Question: For `CC1CCC/C(=C\Nc2ccc(C(=O)O)cc2)C1=O` (centres undefined), which Potency is on record?
Answer: inconclusive: 2.82 µM [inhibitor, partial curve, poor fit]

Question: With `COc1ccc2c(c1)CCc1c-2n[nH]c1C(=O)O` as the molecule, how does the Potency read?
Answer: inactive

Question: With `COc1ccccc1N1C(=O)c2cccc3c(N(C)CCO)ccc(c23)C1=O` as the molecule, how does the Potency read?
Answer: inconclusive: 20 µM [inhibitor, partial curve, poor fit]

Question: With `O=C(Nc1c(O)c2ccccc2oc1=O)c1cccc(F)c1` as the molecule, how does the Potency read?
Answer: inactive

Question: For `COc1ccc(OC)c(NC(=O)c2sc3nc(Cc4ccccc4)cc(C(F)(F)F)c3c2N)c1`, which Potency is on record?
Answer: active: 10 µM

Question: For `OC(COc1ccc2c(c1)CCC2)Cn1cnc2ccccc21` (centres undefined), which Potency is on record?
Answer: inactive

Question: With `Cc1ccc(O)c(/C=N/NC(=O)COc2ccc3c(C)cc(=O)oc3c2)c1` as the molecule, how does the Potency read?
Answer: inconclusive: 10 µM [inhibitor, partial curve, poor fit]

Question: Which Potency does the source give for `CC(=N\NC(=O)c1ccccc1)/C(=N/O)C(=O)Nc1ccccc1` here?
Answer: inconclusive: 6.31 µM [inhibitor, single point]

Question: Which Potency does the source give for `CCNC(=S)NNC(=O)c1ccc(S(=O)(=O)NCc2ccco2)cc1` here?
Answer: inconclusive: 35.5 µM [inhibitor, single point]

Question: Which Potency does the source give for `CC1CCCCN1CC(O)COCCC12CC3CC(CC(C3)C1)C2` (centres undefined) here?
Answer: inconclusive: 35.5 µM [inhibitor, single point]

Question: With `CCCN(CCC)CCN1C(=O)C2C(C(=O)Nc3cccc(SC)c3)C3C=CC2(O3)C1C(=O)NC1CCCCC1` (centres undefined) as the molecule, how does the Potency read?
Answer: inactive

Question: Which Potency does the source give for `O=C(CN1CCN(S(=O)(=O)N2CCCCC2)CC1)Nc1cc(Cl)cc(Cl)c1` here?
Answer: inactive

Question: With `CC(=O)N1CCN(c2nc3c(C)ccc(Cl)c3s2)CC1` as the molecule, how does the Potency read?
Answer: inconclusive: 5.62 µM [inhibitor, single point]

Question: With `NC(=O)COc1ccc(/C=N/NS(=O)(=O)c2ccccc2)cc1` as the molecule, how does the Potency read?
Answer: inconclusive: 3.16 µM [inhibitor, partial curve, poor fit]

Question: For `Cc1ccc(NC(=O)CN2C(=O)CC(c3ccc(F)cc3)=Nc3ccccc32)cc1F`, which Potency is on record?
Answer: inconclusive: 20 µM [inhibitor, single point]

Question: Which Potency does the source give for `O=C(N/N=C/c1c(O)ccc2ccccc12)Nc1ccccc1` here?
Answer: inconclusive: 31.6 µM [inhibitor, single point]

Question: For `CCN1C(=O)/C(=C\C=C2/C=CC=CN2CC)SC1=S`, which Potency is on record?
Answer: inconclusive: 3.16 µM [inhibitor, single point]

Question: Which Potency does the source give for `Cn1cccc1/C=C1\CCC/C(=C\c2cccn2C)C1=O` here?
Answer: inconclusive: 7.08 µM [inhibitor, partial curve, poor fit]

Question: Which Potency does the source give for `CC1=C(c2ccc(C)c(C)c2)S(=O)(=O)N=C1N1CCC(C(=O)Nc2ccc(Cl)cc2)CC1` here?
Answer: inconclusive: 25.1 µM [inhibitor, single point]

Question: Which Potency does the source give for `O=C1C2CC=C(Cl)CC2C(=O)N1CCc1c[nH]c2ccccc12` (centres undefined) here?
Answer: inactive

Question: Which Potency does the source give for `CCc1ccc(NS(=O)(=O)c2ccc(C)c(C(=O)N3CCOCC3)c2)cc1` here?
Answer: inactive

Question: Which Potency does the source give for `O=C(CSc1n[nH]c(-c2ccccn2)n1)Nc1ccccc1` here?
Answer: inconclusive: 5.62 µM [inhibitor, single point]

Question: Which Potency does the source give for `Oc1c(Cl)cc(Cl)c2c1NCCC2` here?
Answer: inconclusive: 31.6 µM [inhibitor, single point]

Question: For `CC(=O)NS(=O)(=O)c1ccc(Nc2ccc([N+](=O)[O-])c3nonc23)cc1`, which Potency is on record?
Answer: inconclusive: 35.5 µM [inhibitor, single point]

Question: With `CC(=O)Nc1ccc(C(=O)NCC2CCCCC2)cc1` as the molecule, how does the Potency read?
Answer: inconclusive: 35.5 µM [inhibitor, single point]

Question: Which Potency does the source give for `COCCNC(=O)C1CCN(Cc2cccc(OCc3ccccc3)c2)CC1` here?
Answer: inconclusive: 10 µM [inhibitor, partial curve, poor fit]

Question: Which Potency does the source give for `CCOc1cc(/C=C2/C(=N)N3C(=NC2=O)SN=C3S(=O)(=O)C(C)C)ccc1OC(=O)c1ccco1` here?
Answer: inconclusive: 25.1 µM [inhibitor, partial curve, poor fit]

Question: With `Cc1cc(C)cc(C(=O)Nc2ccc(NC(=O)c3cccs3)cc2)c1` as the molecule, how does the Potency read?
Answer: inconclusive: 17.8 µM [inhibitor, single point]

Question: For `COCCNC(=S)N/N=C(\C)c1cccc(C(F)(F)F)c1`, which Potency is on record?
Answer: inconclusive: 5.01 µM [inhibitor, single point]

Question: Which Potency does the source give for `Cc1c(NC(=O)c2coc(=O)c(Br)c2)c(=O)n(-c2ccccc2)n1C` here?
Answer: inconclusive: 22.4 µM [inhibitor, partial curve, poor fit]

Question: With `CCCCNc1cc(N2CCN(C3CCCCC3)CC2)c2noc3c2c1C(=O)c1ccccc1-3` as the molecule, how does the Potency read?
Answer: inconclusive: 5.62 µM [inhibitor, single point]

Question: Which Potency does the source give for `N=c1c(-c2nc3ccccc3[nH]2)cc(C(=O)c2ccco2)nn1-c1ccccc1` here?
Answer: inconclusive: 0.562 µM [inhibitor, full curve, poor fit]

Question: For `Cc1cc(=O)c2cc(Cl)ccc2[nH]1`, which Potency is on record?
Answer: inactive

Question: For `COc1ccc(CN2[C@@H](CC(C)=O)c3ccc(/C=C/C(C)=O)cc3S2(=O)=O)cc1`, which Potency is on record?
Answer: inactive

Question: For `C=CCn1c(N)c(C(=O)Nc2ccccc2)c2nc3ccccc3nc21`, which Potency is on record?
Answer: inconclusive: 28.2 µM [inhibitor, single point]
